Counter-ions that a name gives are not always drawn. Several reference drugs read as weak here; read low effects with care.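 All three lines are high-grade serous ovarian cancer cells differing in chemosensitivity, with OVCAR3 described as the chemosensitive one. Toxicity was scaled between DMSO vehicle wells and fully lysed wells, the score derives from a fitted multi-dose response curve, and the authors counted a score above 5 as drug sensitivity.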

We go through 41 compounds from the supplement of paper PMC12593923.

Among the test systems are Kuramochi; OVCAR3; OVCAR4.
Common to all, as to test: drug sensitivity score (DSS2, cytotoxicity, CellTox Green); higher = more cytotoxic / more sensitive; extreme values may be limits of the assay
What all share (conditions): 72 h; doses 0.5, 1, 5 µM

Turning to `O=C1CCC[C@@H]2[C@H]3CCCN4CCC[C@@H](CN12)[C@@H]34` [Matrine], the drug sensitivity score with Kuramochi, in the test on OVCAR3 and in the test with OVCAR4 was 0 DSS throughout.

Take `COC(=O)[C@H]1[C@H]2C[C@@H]3c4[nH]c5cc(OC)ccc5c4CCN3C[C@H]2C[C@@H](OC(=O)c2cc(OC)c(OC)c(OC)c2)[C@@H]1OC` [Reserpine]: the drug sensitivity score in the test on Kuramochi, in the test on OVCAR3 and with OVCAR4 was 0 DSS throughout.

As for `CCN(CC)CCNC(=O)c1c(C)[nH]c(/C=C2\C(=O)Nc3ccc(F)cc32)c1C` [Sunitinib], the drug sensitivity score in the test with Kuramochi, in the test with OVCAR3 and in the test on OVCAR4 was 0 DSS in each case.

For `CN1CCN(C(=O)/C=C/c2ccc([N+](=O)[O-])o2)CC1`, the drug sensitivity score with Kuramochi, in the test on OVCAR3 and in the test on OVCAR4 was 0 DSS each time.

`CC(=O)N(O)CCCCCNC(=O)CCC(=O)N(O)CCCCCNC(=O)CCC(=O)N(O)CCCCCN` [Deferoxamine (mesylate)]: the drug sensitivity score in the test on Kuramochi, in the test on OVCAR3 and with OVCAR4 was 0 DSS each time.

With `CCCC(CCC)C(=O)O` [Valproic acid (sodium salt)], the drug sensitivity score with Kuramochi, in the test on OVCAR3 and in the test with OVCAR4 was 0 DSS in each case.

Regarding `COc1ccc2[nH]c([S+]([O-])Cc3ncc(C)c(OC)c3C)nc2c1` (stereo not drawn) [Omeprazole (sodium)], the results for the drug sensitivity score in the test on Kuramochi, in the test with OVCAR3 and in the test with OVCAR4 were 0 DSS, 2.9 DSS and 0 DSS, respectively.

As to `Cc1cc2c(C(C)C)c(O)c(O)c(C=O)c2c(O)c1-c1c(C)cc2c(C(C)C)c(O)c(O)c(C=O)c2c1O` [Gossypol], the drug sensitivity score with Kuramochi, in the test with OVCAR3 and in the test on OVCAR4 was 0 DSS each time.

In the case of `CCc1c(Cl)c(O)c(Cl)c(O)c1C(=O)O[C@H]1[C@H](O)[C@H](OC)[C@H](OC/C2=C\C=C\C[C@H](O)/C(C)=C/[C@H](CC)[C@@H](O[C@@H]3OC(C)(C)[C@@H](OC(=O)C(C)C)[C@H](O)[C@@H]3O)/C(C)=C/C(C)=C/C[C@@H]([C@@H](C)O)OC2=O)O[C@@H]1C` [Fidaxomicin], the drug sensitivity score in the test with Kuramochi, in the test with OVCAR3 and with OVCAR4 was 0 DSS throughout.

`CC(C)(CO)[C@@H](O)C(=O)NCCC(=O)O` [D-Pantothenic acid (sodium)]: the drug sensitivity score with Kuramochi, in the test with OVCAR3 and in the test on OVCAR4 was 0 DSS throughout.

Regarding `COc1ccc(CN2CCNCC2)c(OC)c1OC` [Trimetazidine (dihydrochloride)], the drug sensitivity score in the test on Kuramochi, in the test on OVCAR3 and in the test with OVCAR4 was 0 DSS throughout.

Take `COc1c(C)c2c(c(O)c1C/C=C(\C)CCC(=O)OCCN1CCOCC1)C(=O)OC2` [Mycophenolate Mofetil]: the drug sensitivity score with Kuramochi, with OVCAR3 and with OVCAR4 was 0 DSS throughout.

For `CN(Cc1cc(Br)cc(Br)c1N)C1CCCCC1` [Bromhexine (hydrochloride)], the drug sensitivity score in the test on Kuramochi, in the test on OVCAR3 and in the test with OVCAR4 was 0 DSS throughout.

As to `CC[C@]1(O)C[C@H]2CN(CCc3c([nH]c4ccccc34)[C@@](C(=O)OC)(c3cc4c(cc3OC)N(C=O)[C@H]3[C@@](O)(C(=O)OC)[C@H](OC(C)=O)[C@]5(CC)C=CCN6CC[C@]43[C@@H]65)C2)C1` [Vincristine (sulfate)], the drug sensitivity score in the test with Kuramochi amounted to 2.4 DSS; in the test with OVCAR3 it was 5 DSS; in the test on OVCAR4, 0 DSS.

Regarding `COc1cc(Nc2c(C#N)cnc3cc(OCCCN4CCN(C)CC4)c(OC)cc23)c(Cl)cc1Cl` [Bosutinib], the drug sensitivity score with Kuramochi, in the test on OVCAR3 and with OVCAR4 was 0 DSS throughout.

Regarding `NCCS(=O)(=O)O` [Taurine], the drug sensitivity score in the test with Kuramochi turned out to be 0 DSS; in the test with OVCAR3, 0.7 DSS; in the test with OVCAR4 it was 2.4 DSS.

`CC(C(=O)O)c1ccc(-c2ccccc2)c(F)c1` (stereo not drawn) [Flurbiprofen]: the drug sensitivity score in the test on Kuramochi, in the test on OVCAR3 and with OVCAR4 was 0 DSS throughout.

As to `COC(=O)c1cc(OC)c2c(c1-c1c(CO)cc(OC)c3c1OCO3)OCO2` [Bicyclol], the drug sensitivity score in the test on Kuramochi, in the test with OVCAR3 and with OVCAR4 was 0 DSS throughout.

On to `CC(O)(P(=O)(O)O)P(=O)(O)O` [Etidronic acid], for which the drug sensitivity score with Kuramochi, in the test on OVCAR3 and in the test on OVCAR4 was 0 DSS in each case.

For `CC(=O)O[C@]1(C(C)=O)CC[C@H]2[C@@H]3C=C(C)C4=CC(=O)CC[C@]4(C)[C@H]3CC[C@@]21C` [Megestrol acetate], the drug sensitivity score with Kuramochi, in the test with OVCAR3 and in the test on OVCAR4 was 0 DSS each time.

Consider `Nc1ncn([C@H]2C[C@H](O)[C@@H](CO)O2)c(=O)n1` [Decitabine], for which the drug sensitivity score in the test with Kuramochi, in the test with OVCAR3 and in the test with OVCAR4 was 0 DSS each time.

For the compound `COc1ccc2c3c1O[C@H]1C[C@@H](O)C=C[C@@]31CCN(C)C2` [Galanthamine], the drug sensitivity score in the test on Kuramochi, with OVCAR3 and with OVCAR4 was 0 DSS throughout.

Turning to `O=NN(CCCl)C(=O)NC1CCCCC1` [Lomustine], the drug sensitivity score in the test with Kuramochi, with OVCAR3 and in the test with OVCAR4 was 0 DSS each time.

As for `CC(C)n1c(/C=C/C(O)CC(O)CC(=O)O)c(-c2ccc(F)cc2)c2ccccc21` (stereo not drawn) [Fluvastatin (sodium)], the drug sensitivity score in the test on Kuramochi, in the test on OVCAR3 and with OVCAR4 was 0 DSS in each case.

Take `CN1CCOC(c2ccccc2)c2ccccc2C1` (stereo not drawn) [Nefopam (hydrochloride)]: the drug sensitivity score with Kuramochi, in the test with OVCAR3 and with OVCAR4 was 0 DSS throughout.

With `C=C1CC[C@@H]2[C@](C)(CO)[C@H](O)CC[C@@]2(C)[C@@H]1C/C=C1/C(=O)OC[C@H]1O` [Andrographolide], the drug sensitivity score in the test with Kuramochi, with OVCAR3 and in the test on OVCAR4 was 0 DSS in each case.

As to `OC[C@H]1O[C@@H](n2cnc3c2N=CNC[C@H]3O)C[C@@H]1O` [Pentostatin], the drug sensitivity score in the test on Kuramochi, in the test on OVCAR3 and in the test on OVCAR4 was 0 DSS in each case.

On to `O=C1Nc2ccc(Cl)cc2[C@@](C#CC2CC2)(C(F)(F)F)O1` [Efavirenz], for which the drug sensitivity score in the test with Kuramochi, in the test on OVCAR3 and in the test with OVCAR4 was 0 DSS throughout.

For the compound `NCCNc1ccc(NCCN)c2c1C(=O)c1ccncc1C2=O` [Pixantrone (dimaleate)], the drug sensitivity score in the test with Kuramochi, with OVCAR3 and with OVCAR4 was 0 DSS each time.

On to `CC(C)C(C(=O)O)N1C(=O)C(=Cc2ccc(Br)cc2)SC1=S` (stereo not drawn) [BH3I-1], for which the drug sensitivity score in the test with Kuramochi, in the test with OVCAR3 and in the test with OVCAR4 was 0 DSS in each case.

With `COc1c(OCCCN2CCOCC2)ccc2c3n(c(=NC(=O)c4cnc(N)nc4)nc12)CCN3` [Copanlisib (dihydrochloride)], the drug sensitivity score in the test with Kuramochi turned out to be 3.3 DSS; in the test with OVCAR3 it was 3 DSS; in the test on OVCAR4 it was 2.6 DSS.

Consider `FC(F)(F)c1ccc(CNc2ccc(Cc3c[nH]c4ncc(Cl)cc34)cn2)cn1` [Pexidartinib (hydrochloride)], for which the drug sensitivity score with Kuramochi, in the test on OVCAR3 and with OVCAR4 was 0 DSS throughout.

For `Cc1ccc2ccc(C(Nc3ccccc3)c3ccccc3)c(O)c2n1` (stereo not drawn), the drug sensitivity score in the test on Kuramochi, in the test on OVCAR3 and in the test with OVCAR4 was 0 DSS in each case.

Regarding `CCCCNC(=O)NS(=O)(=O)c1ccc(C)cc1` [Tolbutamide], the drug sensitivity score in the test on Kuramochi, in the test on OVCAR3 and with OVCAR4 was 0 DSS throughout.

`CCC(Sc1nnc2c(n1)[nH]c1ccccc12)C(=O)N1c2ccccc2Sc2ccccc21` (stereo not drawn) [Inauhzin]: the drug sensitivity score in the test with Kuramochi, in the test with OVCAR3 and in the test with OVCAR4 was 0 DSS throughout.

For `COc1ccc(Cl)cc1C(=O)NCCc1ccc(S(=O)(=O)NC(=O)NC2CCCCC2)cc1` [Glibenclamide], the drug sensitivity score in the test with Kuramochi, with OVCAR3 and in the test on OVCAR4 was 0 DSS throughout.

For `N[C@@H](C=O)[C@@H](O)[C@H](O)[C@H](O)CO` [Glucosamine (hydrochloride)], the drug sensitivity score in the test with Kuramochi, in the test on OVCAR3 and in the test with OVCAR4 was 0 DSS in each case.

As for `O=C1CCC(N2C(=O)c3ccccc3C2=O)C(=O)N1` (stereo not drawn) [Thalidomide], the values for the drug sensitivity score in the test on Kuramochi, in the test on OVCAR3 and in the test with OVCAR4 were 2.5 DSS, 3.4 DSS and 0 DSS, respectively.

`CC(=O)Nc1nnc(S(N)(=O)=O)s1` [Acetazolamide]: the drug sensitivity score in the test on Kuramochi, in the test with OVCAR3 and in the test on OVCAR4 was 0 DSS throughout.

Turning to `COCCCOc1cc(C[C@@H](C[C@H](N)[C@@H](O)C[C@H](C(=O)NCC(C)(C)C(N)=O)C(C)C)C(C)C)ccc1OC` [Aliskiren], the drug sensitivity score in the test with Kuramochi, with OVCAR3 and with OVCAR4 was 0 DSS in each case.

As for `Cc1cn([C@H]2C=C[C@@H](CO)O2)c(=O)[nH]c1=O` [Stavudine], the drug sensitivity score with Kuramochi, in the test with OVCAR3 and with OVCAR4 was 0 DSS throughout.
